Assay results from patent US20240115729A1, “COMPOSITIONS AND METHODS FOR TARGETED ANTIFIBROTIC THERAPY IN CHRONIC PANCREATITIS” (University of Virginia Patent Foundation, priority 2021, published 2024).
No constants are given. Whether binding was seen depends on the method and setting. Some results given as binding are weak or reduced against the parent protein; the word gives no strength.

Chains of the proteins cited; added tags and fusions are not shown. Residues count along the entry.
UniProt P08121, residues 155-1219: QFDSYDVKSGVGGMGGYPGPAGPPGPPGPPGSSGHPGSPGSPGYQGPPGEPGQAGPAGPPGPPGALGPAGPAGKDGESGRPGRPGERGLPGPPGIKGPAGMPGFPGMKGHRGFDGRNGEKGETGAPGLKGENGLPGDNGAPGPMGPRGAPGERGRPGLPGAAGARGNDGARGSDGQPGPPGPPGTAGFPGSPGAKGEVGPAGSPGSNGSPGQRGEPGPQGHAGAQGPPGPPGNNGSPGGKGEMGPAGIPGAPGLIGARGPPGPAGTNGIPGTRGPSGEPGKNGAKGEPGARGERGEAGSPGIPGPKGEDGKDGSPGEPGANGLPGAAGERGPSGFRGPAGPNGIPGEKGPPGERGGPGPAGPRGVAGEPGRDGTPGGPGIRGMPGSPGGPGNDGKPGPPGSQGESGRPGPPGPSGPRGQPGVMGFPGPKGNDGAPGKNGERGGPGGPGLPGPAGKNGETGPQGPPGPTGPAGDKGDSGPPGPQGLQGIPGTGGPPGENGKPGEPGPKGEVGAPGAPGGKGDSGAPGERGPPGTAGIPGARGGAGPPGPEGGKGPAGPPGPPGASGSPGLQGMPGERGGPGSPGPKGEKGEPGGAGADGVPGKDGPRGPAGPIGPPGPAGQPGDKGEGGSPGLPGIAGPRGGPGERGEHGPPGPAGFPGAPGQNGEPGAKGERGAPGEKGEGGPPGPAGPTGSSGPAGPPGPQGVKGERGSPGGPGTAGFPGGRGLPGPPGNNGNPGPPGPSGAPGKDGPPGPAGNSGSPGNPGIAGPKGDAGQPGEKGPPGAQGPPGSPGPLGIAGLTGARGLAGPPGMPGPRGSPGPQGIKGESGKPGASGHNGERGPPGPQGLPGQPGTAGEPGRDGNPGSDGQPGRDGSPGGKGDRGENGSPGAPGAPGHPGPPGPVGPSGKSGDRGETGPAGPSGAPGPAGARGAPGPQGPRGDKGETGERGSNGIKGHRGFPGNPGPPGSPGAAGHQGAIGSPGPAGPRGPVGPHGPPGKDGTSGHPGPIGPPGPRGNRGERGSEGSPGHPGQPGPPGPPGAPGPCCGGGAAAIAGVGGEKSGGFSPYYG

Legend:
collagen IIIa (mouse) [1] = target: collagen IIIa (mouse) (UniProt P08121); test: IF colocalization of VT680 phage with marker, CP mouse pancreas sections; Tukey-Kramer test
collagen IIIa (mouse) [2] = target: collagen IIIa (mouse) (UniProt P08121); test: IF colocalization; one-way ANOVA and Tukey-Kramer on MCC
collagen IIIa (mouse) [3] = target: collagen IIIa (mouse) (UniProt P08121); test: immunofluorescence images, CP mouse pancreas (FIG. 7)
collagen IIIa (mouse) [4] = target: collagen IIIa (mouse) (UniProt P08121); test: summary table of phage clones showing specificity to cellular components (IF colocalization)

Measured: binding

B1: MDLSLKP (SEQ ID NO: 19) phage clone (peptide, not shown: large carriers)
peptide: MDLSLKP
binds: all assays above
